Substitutions are numbered along the chain they refer to. These are yes or no findings as the source states them, for the method shown. A result given as binding can be weak or reduced; the word gives no strength.
B1: d301 (Fab, V domains shown)
VH: QSLEESGGRLVTPGTPLTLTCTVSGFSLSTYTLGWVRQAPGKGLEYIGWIDSSGSAYYASWAKGRFTISKASSTTVDLKMAGLTTEDTATYFCASGNTGGDPLYYGMDPWGPGTLVTVSS
VL: DPVLTQTPSSTSAAVGGTVTIKCQASQNIGRWLAWYQQKPGQPPKLLIYRASDLASGVPSRFKGSGSGTQFTLTISGVQREDAATYYCLGSYSSSDSAFGGGTEVVVK
notes: Chimeric rabbit/human Fab, kappa, with 6xHis tag; also called Fab d301; d301 r/h-IgG1k
B2: 5S8 (Fab, V domains shown)
VH: QSVEESGGRLVTPGTPLTLTCTVSGFSLSSYAMTWVRQAPGKGLEWIGVIGTSGMRYYANWAKGRFTISKTSTTVDLKITSPTTEDTATYFCARANFYVGNDESTDAFDPWGPGTLVTVSS
VL: ALVMTQTPPSLSASVGETVRIRCLASEDIYNTISWYQQKPGKPPTLLIYGASNLKSGVPPRFSGSGSGTDYTLTIGGVQSEDAATYYCLGGYSYSSTGLTFGAGTKVEIK
notes: Chimeric rabbit/human Fab, kappa, with 6xHis tag in SPR, zymosan and JeKo-1 assays; also called Fab 5S8; 5S8 r/h-IgG1k
B3: 3NS1 (Fab, V domains shown)
VH: QSVEESGGRLVTPGTPLTLTCTVSGFSLSNYIITWVRQAPGKGLEWIGMISTDGDTYYANWAKGRFTISKTSTTANLKITSPTTEDTATYFCARGLTNFFIWGPGTLVTVSS
VL: QPVLTQSPSVSAALGASAKLTCTLSSAHKTYSIGWYQQHQGEAPRFLMQLRRDGSYTKGTGVPDHFSGSSSGADRYLIIPNVQADDEADYYCGVDYDGGYVFGGGTQLTVTG
notes: Chimeric rabbit/human Fab, lambda, with 6xHis tag; also called 3NS1 r/h-IgG1λ
B4: 3N07 (Fab, V domains shown)
VH: B1 VH with T30R, L33M, G34A, A56T, A71T, A81T, G82S, T98D
VL: DGVMTQTPSSTSAAVGGTVTIKCQASQSIRSWLSWYQQKPGQPPKLLIYEASKLASGVPSRFKGSRSGTEYTLAISGVQREDAATYYCLGSIASDDTAFGAGTNVEIK
notes: Chimeric rabbit/human Fab, kappa, with 6xHis tag; also called Fab 3N07; 3N07 r/h-IgG1k

Target: PNHCS/ΔC5 2h (human)
Test: flow cytometry: Fab at 2.5 µg/mL on JeKo-1 cells opsonized with 10 µg/mL rituximab and incubated with 50% C5-depleted human serum for 2 h without CR1

Row | Binder | binding
1 | B1 | binds
2 | B2 | binds
3 | B3 | binds
4 | B4 | binds

From patent US20230029635A1 (US Dept. of Health and Human Services, published 2023)
